Earlier results, collected in patent publication US20110165235A1, “DIRECTLY PRESSED ALISKIREN TABLETS” (ratiopharm GmbH, priority 2008, published 2011).
The name of at least one read-out is uncertain.

Details: BCS classification

In the case of COCCCOc1cc(C[C@@H](C[C@H](N)[C@@H](O)C[C@H](C(=O)NCC(C)(C)C(N)=O)C(C)C)C(C)C)ccc1OC [Aliskiren, (2S,4S,5S,7S)-5-amino-N-(2-carbamoyl-2-methyl-propyl)-4-hydroxy-7-{[4-methoxy-3-(3-methoxypropoxy)phenyl]methyl}-8-methyl-2-propan-2-yl-nonanamide], the permeability is given as “poor”.
